Among the data in doi:10.1101/2020.07.24.220640 are binding values, retold here.

Chains of the proteins cited; added tags and fusions are not shown.
UniProt P13395: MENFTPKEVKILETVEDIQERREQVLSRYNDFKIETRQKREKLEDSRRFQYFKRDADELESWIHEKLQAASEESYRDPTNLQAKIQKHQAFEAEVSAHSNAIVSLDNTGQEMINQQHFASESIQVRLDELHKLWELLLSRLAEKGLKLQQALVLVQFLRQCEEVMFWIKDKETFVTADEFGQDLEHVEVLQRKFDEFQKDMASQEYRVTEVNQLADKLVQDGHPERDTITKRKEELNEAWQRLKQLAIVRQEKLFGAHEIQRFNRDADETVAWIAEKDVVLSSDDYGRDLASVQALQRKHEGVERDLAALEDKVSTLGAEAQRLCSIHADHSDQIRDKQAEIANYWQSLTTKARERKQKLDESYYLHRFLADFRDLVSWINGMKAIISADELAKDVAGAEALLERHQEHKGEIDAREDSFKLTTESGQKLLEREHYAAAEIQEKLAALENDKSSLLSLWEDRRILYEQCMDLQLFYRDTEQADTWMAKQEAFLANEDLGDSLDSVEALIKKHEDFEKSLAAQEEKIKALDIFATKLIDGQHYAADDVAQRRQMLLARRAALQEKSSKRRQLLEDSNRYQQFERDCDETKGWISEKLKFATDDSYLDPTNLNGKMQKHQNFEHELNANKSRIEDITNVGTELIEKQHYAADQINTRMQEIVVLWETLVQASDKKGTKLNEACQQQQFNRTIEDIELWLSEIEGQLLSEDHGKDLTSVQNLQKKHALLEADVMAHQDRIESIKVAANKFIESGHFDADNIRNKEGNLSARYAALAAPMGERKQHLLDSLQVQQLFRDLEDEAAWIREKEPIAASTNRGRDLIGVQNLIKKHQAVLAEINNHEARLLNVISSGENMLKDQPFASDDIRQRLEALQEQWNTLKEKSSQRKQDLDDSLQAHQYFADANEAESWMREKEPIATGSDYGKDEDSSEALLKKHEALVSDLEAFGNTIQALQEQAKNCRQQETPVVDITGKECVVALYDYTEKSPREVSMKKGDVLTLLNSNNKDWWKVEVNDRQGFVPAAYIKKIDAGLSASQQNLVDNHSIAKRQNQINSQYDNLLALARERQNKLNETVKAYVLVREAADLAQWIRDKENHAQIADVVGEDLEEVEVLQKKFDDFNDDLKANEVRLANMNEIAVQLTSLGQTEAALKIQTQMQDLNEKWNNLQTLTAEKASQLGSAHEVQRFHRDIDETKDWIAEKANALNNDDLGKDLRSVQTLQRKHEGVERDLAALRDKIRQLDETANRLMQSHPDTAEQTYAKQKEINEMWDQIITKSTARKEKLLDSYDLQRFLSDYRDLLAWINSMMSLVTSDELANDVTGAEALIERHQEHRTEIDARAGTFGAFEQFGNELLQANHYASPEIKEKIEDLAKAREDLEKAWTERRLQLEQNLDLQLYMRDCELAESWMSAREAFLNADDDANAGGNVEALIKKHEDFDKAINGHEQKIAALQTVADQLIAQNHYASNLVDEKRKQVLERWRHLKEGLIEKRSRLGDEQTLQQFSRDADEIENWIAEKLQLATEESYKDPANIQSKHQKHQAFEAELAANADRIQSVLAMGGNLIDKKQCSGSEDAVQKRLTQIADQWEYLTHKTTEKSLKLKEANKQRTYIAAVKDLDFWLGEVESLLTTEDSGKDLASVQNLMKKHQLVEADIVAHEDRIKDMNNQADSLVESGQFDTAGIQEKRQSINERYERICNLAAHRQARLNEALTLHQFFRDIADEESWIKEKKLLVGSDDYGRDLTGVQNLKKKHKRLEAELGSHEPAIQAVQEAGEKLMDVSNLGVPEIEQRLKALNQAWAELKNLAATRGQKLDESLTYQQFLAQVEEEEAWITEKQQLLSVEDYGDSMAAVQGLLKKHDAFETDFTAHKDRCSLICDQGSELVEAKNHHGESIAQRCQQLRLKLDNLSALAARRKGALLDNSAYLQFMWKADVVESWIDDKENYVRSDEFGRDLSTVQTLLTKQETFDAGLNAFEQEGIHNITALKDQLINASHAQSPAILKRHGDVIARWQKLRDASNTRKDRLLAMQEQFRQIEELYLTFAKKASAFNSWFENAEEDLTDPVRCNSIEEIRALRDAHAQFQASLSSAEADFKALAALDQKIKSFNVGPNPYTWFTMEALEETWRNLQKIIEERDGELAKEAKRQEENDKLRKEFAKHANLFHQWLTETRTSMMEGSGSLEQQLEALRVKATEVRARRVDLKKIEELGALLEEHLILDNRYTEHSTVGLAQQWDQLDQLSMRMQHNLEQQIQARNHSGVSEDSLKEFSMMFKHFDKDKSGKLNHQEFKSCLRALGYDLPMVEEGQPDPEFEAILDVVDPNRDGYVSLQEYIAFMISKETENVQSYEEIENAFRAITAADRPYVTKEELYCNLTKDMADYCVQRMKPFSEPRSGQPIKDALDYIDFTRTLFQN
UniProt Q00963: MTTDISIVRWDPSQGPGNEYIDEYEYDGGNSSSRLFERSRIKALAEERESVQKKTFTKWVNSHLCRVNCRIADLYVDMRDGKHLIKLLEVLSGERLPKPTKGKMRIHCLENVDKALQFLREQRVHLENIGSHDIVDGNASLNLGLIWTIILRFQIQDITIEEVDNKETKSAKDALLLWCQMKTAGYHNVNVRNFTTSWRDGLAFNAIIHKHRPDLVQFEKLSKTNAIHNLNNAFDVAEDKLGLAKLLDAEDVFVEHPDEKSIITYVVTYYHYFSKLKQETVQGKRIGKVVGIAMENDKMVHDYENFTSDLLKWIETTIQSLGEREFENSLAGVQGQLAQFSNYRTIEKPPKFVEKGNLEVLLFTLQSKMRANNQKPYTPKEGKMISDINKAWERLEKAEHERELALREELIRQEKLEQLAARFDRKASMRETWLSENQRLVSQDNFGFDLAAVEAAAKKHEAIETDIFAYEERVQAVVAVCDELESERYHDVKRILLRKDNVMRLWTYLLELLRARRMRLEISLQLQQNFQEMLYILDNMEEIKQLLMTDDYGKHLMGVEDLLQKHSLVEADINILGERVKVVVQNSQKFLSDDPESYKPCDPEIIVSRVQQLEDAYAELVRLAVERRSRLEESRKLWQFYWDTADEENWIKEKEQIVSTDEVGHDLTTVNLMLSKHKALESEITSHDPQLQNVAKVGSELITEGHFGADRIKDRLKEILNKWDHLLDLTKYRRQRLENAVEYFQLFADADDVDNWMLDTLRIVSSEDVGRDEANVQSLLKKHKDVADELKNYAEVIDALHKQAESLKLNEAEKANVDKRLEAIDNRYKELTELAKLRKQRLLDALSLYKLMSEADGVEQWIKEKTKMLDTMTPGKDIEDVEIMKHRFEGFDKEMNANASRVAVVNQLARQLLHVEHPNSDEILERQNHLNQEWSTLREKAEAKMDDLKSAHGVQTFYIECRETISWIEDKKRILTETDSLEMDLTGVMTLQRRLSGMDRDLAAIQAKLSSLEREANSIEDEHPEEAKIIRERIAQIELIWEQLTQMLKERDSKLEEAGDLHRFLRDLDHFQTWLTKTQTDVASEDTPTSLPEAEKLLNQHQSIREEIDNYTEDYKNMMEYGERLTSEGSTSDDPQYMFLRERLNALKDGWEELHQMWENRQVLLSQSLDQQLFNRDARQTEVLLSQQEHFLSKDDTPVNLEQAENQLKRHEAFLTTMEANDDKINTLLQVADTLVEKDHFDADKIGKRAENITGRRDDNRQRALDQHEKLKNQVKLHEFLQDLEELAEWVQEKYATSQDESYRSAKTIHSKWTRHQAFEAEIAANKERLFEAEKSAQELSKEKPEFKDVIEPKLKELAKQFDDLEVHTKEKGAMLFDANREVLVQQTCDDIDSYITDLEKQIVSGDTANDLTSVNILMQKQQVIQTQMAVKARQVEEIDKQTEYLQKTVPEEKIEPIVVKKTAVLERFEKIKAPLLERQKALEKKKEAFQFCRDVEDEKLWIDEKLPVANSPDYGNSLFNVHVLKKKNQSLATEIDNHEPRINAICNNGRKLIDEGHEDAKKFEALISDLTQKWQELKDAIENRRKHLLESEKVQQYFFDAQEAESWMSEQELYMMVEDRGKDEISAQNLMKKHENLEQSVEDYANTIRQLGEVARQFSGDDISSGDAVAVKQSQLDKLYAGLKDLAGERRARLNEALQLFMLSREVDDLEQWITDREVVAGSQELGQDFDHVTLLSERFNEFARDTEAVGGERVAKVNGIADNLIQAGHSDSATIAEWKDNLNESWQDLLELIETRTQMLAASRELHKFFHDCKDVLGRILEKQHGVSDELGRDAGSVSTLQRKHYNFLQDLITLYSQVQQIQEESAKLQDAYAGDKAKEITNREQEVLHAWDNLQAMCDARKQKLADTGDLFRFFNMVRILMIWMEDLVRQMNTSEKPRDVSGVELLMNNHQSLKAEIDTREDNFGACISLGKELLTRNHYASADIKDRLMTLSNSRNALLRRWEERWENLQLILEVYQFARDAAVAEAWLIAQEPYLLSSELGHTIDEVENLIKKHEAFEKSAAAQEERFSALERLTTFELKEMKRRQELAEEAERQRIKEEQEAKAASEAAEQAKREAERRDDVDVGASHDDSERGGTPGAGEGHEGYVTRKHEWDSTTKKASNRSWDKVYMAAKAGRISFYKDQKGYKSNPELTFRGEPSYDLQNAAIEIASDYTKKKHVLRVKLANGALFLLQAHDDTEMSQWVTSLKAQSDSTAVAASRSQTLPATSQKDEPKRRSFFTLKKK

Results are given in words; binding and its absence hold for the method and conditions named. In cells and extracts the contact can be indirect. These calls come from enrichment with a bait or labelling near it, and not all partners need be listed.

The assay concerns the target α-Spectrin (Drosophila melanogaster (endogenous in testis)) (UniProt P13395). In words: affinity purification with mass spectrometry.

β-Spectrin (from UniProt Q00963 1-2291): the binding entry was “binds”.
